Results as given in publication PMC11187941.
These are yes or no findings as the source states them, for the method shown. Binding seen in cells or lysates may run through a third protein. Some entries that bind do so weakly or less than the wild type.

Protein sequences, listed by entry. Tags and fused reporters are not part of them.
UniProt Q920B6: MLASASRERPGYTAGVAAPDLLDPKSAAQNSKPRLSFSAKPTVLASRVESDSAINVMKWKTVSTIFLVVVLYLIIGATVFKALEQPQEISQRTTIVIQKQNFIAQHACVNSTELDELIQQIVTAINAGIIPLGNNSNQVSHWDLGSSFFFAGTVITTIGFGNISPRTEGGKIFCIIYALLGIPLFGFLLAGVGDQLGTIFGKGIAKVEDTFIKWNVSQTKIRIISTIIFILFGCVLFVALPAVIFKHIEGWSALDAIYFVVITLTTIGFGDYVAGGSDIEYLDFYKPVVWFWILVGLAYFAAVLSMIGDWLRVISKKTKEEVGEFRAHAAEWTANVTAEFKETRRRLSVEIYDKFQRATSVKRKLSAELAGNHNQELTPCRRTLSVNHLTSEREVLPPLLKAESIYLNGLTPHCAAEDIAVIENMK
UniProt Q9JIS4: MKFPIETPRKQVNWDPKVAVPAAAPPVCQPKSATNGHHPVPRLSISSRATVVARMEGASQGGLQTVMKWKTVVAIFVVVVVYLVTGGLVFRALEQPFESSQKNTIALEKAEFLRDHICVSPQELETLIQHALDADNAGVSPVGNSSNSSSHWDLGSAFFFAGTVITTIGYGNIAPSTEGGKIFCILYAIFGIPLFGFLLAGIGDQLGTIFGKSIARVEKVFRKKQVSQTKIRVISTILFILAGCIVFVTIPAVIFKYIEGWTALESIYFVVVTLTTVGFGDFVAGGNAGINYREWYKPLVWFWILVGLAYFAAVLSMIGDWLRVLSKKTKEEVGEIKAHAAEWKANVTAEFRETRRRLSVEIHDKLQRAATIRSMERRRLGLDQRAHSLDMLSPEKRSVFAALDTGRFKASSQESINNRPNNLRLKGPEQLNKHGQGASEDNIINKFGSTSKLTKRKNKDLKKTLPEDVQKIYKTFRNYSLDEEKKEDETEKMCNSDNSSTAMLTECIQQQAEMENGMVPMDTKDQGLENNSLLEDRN

Target: T1, Sortilin (rat (endogenous in DRG)) (UniProt O54861)
T1 sequence: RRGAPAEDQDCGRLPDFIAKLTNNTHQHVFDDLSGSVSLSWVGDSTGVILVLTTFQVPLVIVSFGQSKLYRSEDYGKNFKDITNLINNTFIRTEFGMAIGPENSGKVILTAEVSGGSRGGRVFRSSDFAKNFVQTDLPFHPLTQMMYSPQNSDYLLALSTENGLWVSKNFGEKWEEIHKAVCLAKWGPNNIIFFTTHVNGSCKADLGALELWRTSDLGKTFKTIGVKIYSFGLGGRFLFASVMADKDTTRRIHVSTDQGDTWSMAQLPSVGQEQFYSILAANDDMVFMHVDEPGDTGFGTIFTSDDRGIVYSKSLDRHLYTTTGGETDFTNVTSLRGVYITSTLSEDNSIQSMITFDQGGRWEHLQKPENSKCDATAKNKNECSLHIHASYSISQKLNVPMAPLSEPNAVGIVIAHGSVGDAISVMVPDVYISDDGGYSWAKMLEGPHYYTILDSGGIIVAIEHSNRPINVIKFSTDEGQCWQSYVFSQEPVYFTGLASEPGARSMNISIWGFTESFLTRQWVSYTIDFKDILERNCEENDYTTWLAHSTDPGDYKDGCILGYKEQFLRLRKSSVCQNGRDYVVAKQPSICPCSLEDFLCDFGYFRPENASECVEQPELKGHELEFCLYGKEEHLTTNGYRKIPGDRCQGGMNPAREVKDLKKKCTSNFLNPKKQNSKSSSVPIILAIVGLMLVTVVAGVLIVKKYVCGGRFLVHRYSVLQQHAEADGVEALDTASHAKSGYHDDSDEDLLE
Assay: co-IP; DRG lysates of prediabetic (high-energy diet) and control rats; Pierce Classic IP Kit; supernatants incubated with the Sortilin antibody at 4 °C overnight; immune complex analysed by western blot for TREK1 and TREK2

Substance	binding
TREK1 (K2P2.1) channel (from UniProt Q920B6 1-426)	binds
TREK2 (K2P10.1) channel (from UniProt Q9JIS4 1-538)	binds
